Assay results taken from the supplement of paper PMC10849652.
The list shows a part of the results.

Amino acid sequences for entries named in this document (tags omitted). A change or cut given only in a name is not applied to a line headed by its entry.
UniProt P23528, whole entry, looked up: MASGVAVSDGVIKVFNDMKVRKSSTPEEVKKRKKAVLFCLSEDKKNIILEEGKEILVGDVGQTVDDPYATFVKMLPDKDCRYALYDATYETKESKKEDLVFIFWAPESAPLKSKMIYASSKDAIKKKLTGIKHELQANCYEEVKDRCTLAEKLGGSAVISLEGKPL
UniProt Q00587: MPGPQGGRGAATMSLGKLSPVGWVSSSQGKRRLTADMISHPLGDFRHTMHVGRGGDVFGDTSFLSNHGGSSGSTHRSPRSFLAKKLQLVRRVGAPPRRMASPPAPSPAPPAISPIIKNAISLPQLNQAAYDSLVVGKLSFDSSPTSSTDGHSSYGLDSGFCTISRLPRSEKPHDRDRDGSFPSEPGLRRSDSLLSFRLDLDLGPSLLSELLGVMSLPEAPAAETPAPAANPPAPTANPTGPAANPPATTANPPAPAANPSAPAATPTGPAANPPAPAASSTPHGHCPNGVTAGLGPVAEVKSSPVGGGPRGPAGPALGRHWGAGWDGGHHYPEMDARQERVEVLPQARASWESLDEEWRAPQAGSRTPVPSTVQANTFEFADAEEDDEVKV
UniProt O00748: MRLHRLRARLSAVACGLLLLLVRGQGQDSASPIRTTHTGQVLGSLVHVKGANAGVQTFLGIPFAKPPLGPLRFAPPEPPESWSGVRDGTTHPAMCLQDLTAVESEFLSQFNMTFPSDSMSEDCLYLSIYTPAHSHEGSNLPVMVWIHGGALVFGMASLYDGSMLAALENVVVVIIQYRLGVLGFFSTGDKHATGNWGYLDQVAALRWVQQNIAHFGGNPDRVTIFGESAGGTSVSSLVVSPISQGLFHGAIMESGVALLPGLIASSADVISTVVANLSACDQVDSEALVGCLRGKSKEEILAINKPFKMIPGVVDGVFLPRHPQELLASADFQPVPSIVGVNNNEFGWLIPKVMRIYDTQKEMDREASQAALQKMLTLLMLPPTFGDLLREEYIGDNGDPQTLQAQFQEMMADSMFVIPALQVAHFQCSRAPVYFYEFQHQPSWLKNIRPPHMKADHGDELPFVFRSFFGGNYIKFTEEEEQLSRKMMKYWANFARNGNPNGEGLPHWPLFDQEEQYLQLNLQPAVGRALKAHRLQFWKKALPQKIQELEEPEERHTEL
UniProt Q96SZ6: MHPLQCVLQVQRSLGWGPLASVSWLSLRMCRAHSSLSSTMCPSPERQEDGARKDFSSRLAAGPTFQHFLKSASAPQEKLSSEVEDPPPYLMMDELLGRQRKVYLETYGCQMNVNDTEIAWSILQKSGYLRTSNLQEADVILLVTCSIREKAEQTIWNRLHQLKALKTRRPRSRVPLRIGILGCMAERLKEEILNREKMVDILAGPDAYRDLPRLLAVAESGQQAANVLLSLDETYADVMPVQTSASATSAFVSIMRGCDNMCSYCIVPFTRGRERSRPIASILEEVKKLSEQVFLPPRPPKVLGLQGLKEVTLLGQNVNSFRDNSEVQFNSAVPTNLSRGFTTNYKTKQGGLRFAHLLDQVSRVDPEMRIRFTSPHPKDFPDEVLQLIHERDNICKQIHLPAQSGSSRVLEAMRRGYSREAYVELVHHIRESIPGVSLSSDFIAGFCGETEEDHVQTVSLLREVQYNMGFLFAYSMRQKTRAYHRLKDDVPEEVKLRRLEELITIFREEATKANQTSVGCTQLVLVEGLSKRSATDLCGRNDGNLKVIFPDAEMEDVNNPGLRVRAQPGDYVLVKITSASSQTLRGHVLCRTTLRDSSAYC
UniProt O14735: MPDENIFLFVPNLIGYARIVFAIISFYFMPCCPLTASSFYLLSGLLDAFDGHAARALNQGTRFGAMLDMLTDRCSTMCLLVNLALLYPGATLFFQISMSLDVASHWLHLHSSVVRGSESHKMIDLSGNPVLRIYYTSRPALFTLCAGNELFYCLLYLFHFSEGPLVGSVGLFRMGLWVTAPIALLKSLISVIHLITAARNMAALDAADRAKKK
UniProt Q9Y6A4: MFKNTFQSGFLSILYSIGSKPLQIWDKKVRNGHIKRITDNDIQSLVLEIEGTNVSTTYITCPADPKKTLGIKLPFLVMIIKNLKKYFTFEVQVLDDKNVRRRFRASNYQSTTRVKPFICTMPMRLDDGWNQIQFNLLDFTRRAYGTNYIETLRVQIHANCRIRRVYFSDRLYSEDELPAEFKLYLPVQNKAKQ
UniProt P06493, whole entry, looked up: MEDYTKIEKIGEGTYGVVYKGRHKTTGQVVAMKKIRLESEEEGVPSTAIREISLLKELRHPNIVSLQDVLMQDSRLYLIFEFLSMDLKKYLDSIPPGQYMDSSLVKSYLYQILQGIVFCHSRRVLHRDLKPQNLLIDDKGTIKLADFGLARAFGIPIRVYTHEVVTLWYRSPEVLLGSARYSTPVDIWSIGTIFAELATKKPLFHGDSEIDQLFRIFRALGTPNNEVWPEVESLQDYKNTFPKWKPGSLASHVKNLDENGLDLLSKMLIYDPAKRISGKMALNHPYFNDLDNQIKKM
UniProt Q9UFW8: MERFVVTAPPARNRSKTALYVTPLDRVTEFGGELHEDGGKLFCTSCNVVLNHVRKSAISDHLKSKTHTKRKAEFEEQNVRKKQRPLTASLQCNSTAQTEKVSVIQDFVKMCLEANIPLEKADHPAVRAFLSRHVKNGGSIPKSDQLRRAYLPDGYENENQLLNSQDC
UniProt P30260, whole entry, looked up: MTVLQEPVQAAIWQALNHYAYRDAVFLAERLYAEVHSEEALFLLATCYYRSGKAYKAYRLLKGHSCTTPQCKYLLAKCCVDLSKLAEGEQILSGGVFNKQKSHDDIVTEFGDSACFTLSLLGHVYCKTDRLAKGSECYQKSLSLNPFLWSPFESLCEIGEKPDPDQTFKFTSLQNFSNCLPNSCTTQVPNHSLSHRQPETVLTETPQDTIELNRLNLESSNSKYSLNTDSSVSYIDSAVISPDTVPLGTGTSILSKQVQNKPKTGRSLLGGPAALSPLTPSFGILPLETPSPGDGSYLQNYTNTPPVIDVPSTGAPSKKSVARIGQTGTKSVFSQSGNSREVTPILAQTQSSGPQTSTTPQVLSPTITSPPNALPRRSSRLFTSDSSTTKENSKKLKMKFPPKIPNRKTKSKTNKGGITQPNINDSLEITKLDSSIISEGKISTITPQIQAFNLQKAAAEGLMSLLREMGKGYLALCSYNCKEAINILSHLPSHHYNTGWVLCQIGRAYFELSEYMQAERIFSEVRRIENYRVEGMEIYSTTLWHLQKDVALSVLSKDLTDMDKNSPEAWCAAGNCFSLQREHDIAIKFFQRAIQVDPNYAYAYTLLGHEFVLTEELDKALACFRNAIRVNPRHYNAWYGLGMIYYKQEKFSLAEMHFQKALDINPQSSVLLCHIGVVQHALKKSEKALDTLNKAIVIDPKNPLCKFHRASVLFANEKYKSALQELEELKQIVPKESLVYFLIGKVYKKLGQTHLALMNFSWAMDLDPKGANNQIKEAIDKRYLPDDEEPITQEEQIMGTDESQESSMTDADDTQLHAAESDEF
UniProt Q14004, whole entry, looked up: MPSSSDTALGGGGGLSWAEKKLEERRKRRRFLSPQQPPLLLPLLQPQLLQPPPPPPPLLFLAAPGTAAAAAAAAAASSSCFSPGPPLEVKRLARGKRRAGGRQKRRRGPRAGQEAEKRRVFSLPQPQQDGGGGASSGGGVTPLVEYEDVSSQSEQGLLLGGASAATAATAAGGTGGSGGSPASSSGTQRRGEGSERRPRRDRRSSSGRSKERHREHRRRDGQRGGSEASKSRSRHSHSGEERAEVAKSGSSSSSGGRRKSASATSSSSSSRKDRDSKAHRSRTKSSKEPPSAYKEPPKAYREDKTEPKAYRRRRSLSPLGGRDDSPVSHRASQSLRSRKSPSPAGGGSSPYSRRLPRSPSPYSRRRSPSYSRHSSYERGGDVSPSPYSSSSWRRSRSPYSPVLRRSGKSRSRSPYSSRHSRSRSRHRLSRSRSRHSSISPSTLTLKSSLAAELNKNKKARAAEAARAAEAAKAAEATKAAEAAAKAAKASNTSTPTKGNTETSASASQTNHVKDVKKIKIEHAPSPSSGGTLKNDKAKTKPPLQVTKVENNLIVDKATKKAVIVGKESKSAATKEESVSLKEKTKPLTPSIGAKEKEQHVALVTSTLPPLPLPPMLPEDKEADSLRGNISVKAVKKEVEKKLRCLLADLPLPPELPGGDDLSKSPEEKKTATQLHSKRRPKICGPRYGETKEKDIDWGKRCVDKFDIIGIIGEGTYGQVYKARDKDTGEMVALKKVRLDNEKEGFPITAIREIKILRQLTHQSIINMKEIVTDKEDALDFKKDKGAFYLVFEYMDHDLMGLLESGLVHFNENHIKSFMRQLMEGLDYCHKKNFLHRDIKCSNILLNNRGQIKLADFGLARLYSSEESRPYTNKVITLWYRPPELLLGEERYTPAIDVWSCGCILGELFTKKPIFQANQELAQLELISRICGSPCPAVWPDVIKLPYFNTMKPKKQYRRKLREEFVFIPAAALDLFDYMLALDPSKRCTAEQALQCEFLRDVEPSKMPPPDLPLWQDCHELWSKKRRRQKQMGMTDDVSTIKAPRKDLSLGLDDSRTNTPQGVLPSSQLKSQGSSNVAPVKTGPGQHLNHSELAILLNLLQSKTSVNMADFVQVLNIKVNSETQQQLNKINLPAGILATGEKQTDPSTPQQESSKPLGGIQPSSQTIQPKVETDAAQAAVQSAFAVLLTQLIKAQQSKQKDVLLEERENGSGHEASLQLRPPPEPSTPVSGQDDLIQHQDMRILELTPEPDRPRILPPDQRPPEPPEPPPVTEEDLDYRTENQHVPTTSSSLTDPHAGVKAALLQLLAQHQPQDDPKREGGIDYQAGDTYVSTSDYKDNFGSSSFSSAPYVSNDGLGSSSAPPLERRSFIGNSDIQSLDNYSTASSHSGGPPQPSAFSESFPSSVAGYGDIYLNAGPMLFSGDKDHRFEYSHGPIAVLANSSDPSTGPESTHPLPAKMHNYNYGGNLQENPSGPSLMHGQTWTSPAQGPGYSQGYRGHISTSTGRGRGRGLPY
UniProt Q9H3R5: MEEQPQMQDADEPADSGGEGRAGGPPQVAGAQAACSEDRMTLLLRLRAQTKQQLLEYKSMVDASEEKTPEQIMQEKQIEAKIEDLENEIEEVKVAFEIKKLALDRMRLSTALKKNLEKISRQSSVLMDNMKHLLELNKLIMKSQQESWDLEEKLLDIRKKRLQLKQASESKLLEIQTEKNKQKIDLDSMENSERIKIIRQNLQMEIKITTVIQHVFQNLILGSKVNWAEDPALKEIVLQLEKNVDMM
UniProt Q86X02: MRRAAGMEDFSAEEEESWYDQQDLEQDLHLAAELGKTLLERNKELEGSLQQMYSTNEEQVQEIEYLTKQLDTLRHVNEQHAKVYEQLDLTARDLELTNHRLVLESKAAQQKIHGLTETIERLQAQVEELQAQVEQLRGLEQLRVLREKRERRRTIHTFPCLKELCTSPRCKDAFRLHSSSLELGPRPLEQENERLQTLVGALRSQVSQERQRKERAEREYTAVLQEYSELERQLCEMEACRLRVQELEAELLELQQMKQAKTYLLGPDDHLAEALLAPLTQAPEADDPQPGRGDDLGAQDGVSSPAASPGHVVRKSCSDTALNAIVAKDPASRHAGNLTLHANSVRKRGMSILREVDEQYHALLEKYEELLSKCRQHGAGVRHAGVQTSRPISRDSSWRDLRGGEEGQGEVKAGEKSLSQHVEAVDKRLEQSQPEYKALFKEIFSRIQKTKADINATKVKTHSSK
UniProt Q16543: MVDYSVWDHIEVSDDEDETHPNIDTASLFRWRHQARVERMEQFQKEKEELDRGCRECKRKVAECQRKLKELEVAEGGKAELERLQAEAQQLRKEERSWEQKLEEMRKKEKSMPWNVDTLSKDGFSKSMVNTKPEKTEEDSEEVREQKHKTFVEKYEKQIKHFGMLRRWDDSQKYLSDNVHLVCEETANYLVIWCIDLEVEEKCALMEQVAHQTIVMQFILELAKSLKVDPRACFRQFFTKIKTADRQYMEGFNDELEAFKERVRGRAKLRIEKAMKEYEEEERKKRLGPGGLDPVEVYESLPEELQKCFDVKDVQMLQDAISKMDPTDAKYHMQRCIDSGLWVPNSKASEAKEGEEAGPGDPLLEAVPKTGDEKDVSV
UniProt Q7L3B6: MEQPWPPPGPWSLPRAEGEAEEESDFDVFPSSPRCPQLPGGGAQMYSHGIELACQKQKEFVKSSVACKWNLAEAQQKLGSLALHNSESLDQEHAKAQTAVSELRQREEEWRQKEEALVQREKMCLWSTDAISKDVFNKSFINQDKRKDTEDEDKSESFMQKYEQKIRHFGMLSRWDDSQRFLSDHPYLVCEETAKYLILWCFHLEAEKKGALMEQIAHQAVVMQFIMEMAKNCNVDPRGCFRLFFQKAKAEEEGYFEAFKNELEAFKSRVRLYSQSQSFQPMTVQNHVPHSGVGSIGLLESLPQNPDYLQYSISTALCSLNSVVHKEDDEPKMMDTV
UniProt P60953, whole entry, looked up: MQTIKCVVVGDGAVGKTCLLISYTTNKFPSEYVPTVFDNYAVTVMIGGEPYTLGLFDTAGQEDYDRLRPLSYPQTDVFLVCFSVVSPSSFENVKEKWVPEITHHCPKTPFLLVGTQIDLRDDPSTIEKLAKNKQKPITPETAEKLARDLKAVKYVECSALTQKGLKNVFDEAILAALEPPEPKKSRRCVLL

Columns and labels:
Assay in all cases: log2 fold change, soluble protein after heating vs DMSO (PISA); higher = thermal stabilisation; K562 lysate, 10 uM; active = over 0.2 and 3.5 SD of the protein, either way, in both replicates (recomputed)
erlotinib = compound: C#Cc1cccc(Nc2ncnc3cc(OCCOC)c(OCCOC)cc23)c1 [erlotinib]
Procedure, shortened: (§1)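 Values give the log-two fold change in thermal stability against solvent controls, from duplicates. Crude K562 extract at 1 mg/mL protein, made by dounce homogenisation in PBS pH 7.4 with 1 mM MgCl2, was treated with 10 μM compound for 30 min. After 3 min heating across 48°C-58°C, aliquots were pooled, adjusted to 0.5% NP-40 at 4°C and centrifuged at 21,000xg for 90 min. The supernatant was measured by TMTpro 16plex LC-MS/MS with channel sums equalised.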

[1] = compound: C/C(=N\NC(=O)C1=CC(=CC=C1)S(=O)(=O)N2CCOCC2)/C3=C(C=CC(=C3)Cl)O
Procedure, shortened: as §1

[2] = compound: C1=CC(=CC=C1C2=NC3=C(N2)C=C(C=C3)C(=O)N)OC4=CC=C(C=C4)Cl
Procedure, shortened: as §1

[3] = compound: C1=CC2=C(C=CC(=C2)/C=C\3/C(=O)NC(=NCC4=CC=CS4)S3)N=C1
Procedure, shortened: as §1

[4] = compound: C1=CC2=NC=CN=C2C=C1/C=C/3\C(=O)NC(=O)S3
Procedure, shortened: as §1

[5] = compound: C1=CC=C(C=C1)C2=NC(=C(N2)C3=CC=NC=C3)C4=CC(=C(C=C4)Cl)O
Procedure, shortened: as §1

[6] = compound: C1=CC=C2C(=C1)C3=NNC4=CC=CC(=C43)C2=O
Procedure, shortened: as §1

[7] = compound: C1CCN(C1)C(=O)NC2=CC=CC(=C2)NC3=NC=C(C(=N3)NCCC4=CN=CN4)Br
Procedure, shortened: as §1

[8] = compound: C1CN(CCC1(CC2=CC=C(C=C2)Cl)N)C3=NC=NC4=C3C=CN4
Procedure, shortened: as §1

IRAK-1-4 Inhibitor I = compound: C1COCCN1CCN2C3=CC=CC=C3N=C2NC(=O)C4=CC(=CC=C4)[N+](=O)[O-] [IRAK-1-4 Inhibitor I]
Procedure, shortened: as §1

| Target | log2 fold change (erlotinib) | log2 fold change [1] | log2 fold change [2] | log2 fold change [3] | log2 fold change [4] | log2 fold change [5] | log2 fold change [6] | log2 fold change [7] | log2 fold change [8] | log2 fold change (IRAK-1-4 Inhibitor I) |
| --- | --- | --- | --- | --- | --- | --- | --- | --- | --- | --- |
| CFL1 (UniProt P23528) | inactive: -0.032 | inactive: -0.004 | inactive: -0.02 | inactive: 0.023 | inactive: -0.004 | inactive: -0.009 | inactive: 0.063 | inactive: 0.026 | inactive: -0.007 | inactive: -0.002 |
| CDC42EP1 (UniProt Q00587) | inactive: 0.144 | inactive: -0.034 | inactive: 0.204 | inactive: -0.14 | inactive: 0.023 | inactive: -0.012 | inactive: -0.063 | inactive: -0.087 | inactive: 0.038 | inactive: -0.046 |
| CFL2 (UniProt Q9Y281) | inactive: 0.009 | inactive: 0.017 | inactive: 0.014 | inactive: -0.026 | inactive: 0.008 | inactive: -0.01 | inactive: 0.027 | inactive: -0.044 | inactive: 0.035 | inactive: 0.007 |
| CES2 isoform 4 (UniProt O00748) | inactive: -0.014 | inactive: 0.006 | inactive: -0.012 | inactive: 0.041 | inactive: -0.035 | inactive: 0.087 | inactive: -0.067 | inactive: 0.053 | inactive: -0.031 | inactive: 0.075 |
| CDK5RAP1 (UniProt Q96SZ6) | inactive: -0.059 | inactive: 0.007 | inactive: -0.029 | inactive: 0.005 | active: -0.392 | inactive: 0.043 | inactive: 0.016 | inactive: -0.016 | inactive: 0.041 | inactive: -0.018 |
| CDIPT (UniProt O14735) | inactive: 0.007 | inactive: -0.098 | inactive: -0.043 | inactive: -0.021 | inactive: 0.013 | inactive: -0.067 | inactive: -0.051 | inactive: 0.009 | inactive: 0.023 | inactive: 0.003 |
| CFAP20 (UniProt Q9Y6A4) | inactive: -0.028 | inactive: -0.043 | inactive: 0.018 | inactive: 0.018 | inactive: 0.026 | inactive: -0.044 | inactive: 0.019 | inactive: -0.016 | inactive: 0.024 | inactive: -0.021 |
| CDK1 (UniProt P06493) | inactive: -0.038 | inactive: 0.046 | inactive: -0.019 | inactive: -0.031 | inactive: -0.002 | inactive: -0.01 | inactive: -0.051 | inactive: -0.007 | inactive: -0.002 | inactive: -0.017 |
| CGGBP1 (UniProt Q9UFW8) | inactive: -0.038 | inactive: 0.057 | inactive: 0.007 | inactive: -0.011 | inactive: -0.035 | inactive: 0.019 | inactive: -0.023 | inactive: -0.046 | inactive: 0.026 | inactive: 0.011 |
| CDC27 isoform 2 (UniProt P30260) | inactive: -0.005 | inactive: 0.023 | inactive: -0.027 | inactive: -0.014 | inactive: 0.01 | inactive: 0.014 | inactive: 0.009 | inactive: 0.023 | inactive: 0.016 | inactive: 0.001 |
| CDK13 (UniProt Q14004) | inactive: -0.136 | inactive: -0.041 | inactive: -0.089 | inactive: -0.052 | inactive: 0.01 | inactive: -0.071 | inactive: 0.127 | inactive: 0.091 | inactive: -0.025 | inactive: -0.044 |
| CEP85 isoform 2 (UniProt Q6P2H3) | inactive: 0.019 | inactive: -0.043 | inactive: -0.062 | inactive: -0.004 | inactive: 0.002 | inactive: -0.006 | inactive: 0.011 | inactive: 0.021 | inactive: 0.027 | inactive: 0.003 |
| CENPH (UniProt Q9H3R5) | inactive: 0.018 | inactive: -0.001 | inactive: 0.021 | inactive: 0.042 | inactive: -0.037 | inactive: 0.017 | inactive: -0.039 | inactive: 0.001 | inactive: -0.019 | inactive: 0.046 |
| CENPE (UniProt Q02224) | inactive: 0.019 | inactive: -0.019 | inactive: 0.013 | inactive: -0.025 | inactive: -0.02 | inactive: 0.015 | inactive: -0.039 | inactive: -0.057 | inactive: 0.041 | inactive: 0.025 |
| CDR2L (UniProt Q86X02) | inactive: -0.041 | inactive: 0.038 | inactive: -0.062 | inactive: -0.021 | inactive: -0.082 | inactive: -0.012 | inactive: -0.066 | inactive: -0.063 | inactive: -0.064 | inactive: 0.078 |
| CEP350 (UniProt Q5VT06) | inactive: -0.036 | inactive: -0.052 | inactive: -0.009 | inactive: -0.054 | inactive: -0.014 | inactive: 0.004 | inactive: 0.046 | inactive: 0.028 | inactive: -0.021 | inactive: -0.049 |
| CDC40 (UniProt O60508) | inactive: -0.036 | inactive: -0.004 | inactive: -0.009 | inactive: -0.037 | inactive: 0.015 | inactive: -0.072 | inactive: -0.059 | inactive: -0.023 | inactive: -0.035 | inactive: 0.117 |
| CDC37 (UniProt Q16543) | inactive: -0.004 | inactive: 0.027 | inactive: 0.015 | inactive: -0.025 | inactive: -0.008 | inactive: 0.032 | inactive: 0.013 | inactive: 0.025 | inactive: -0.004 | inactive: 0.011 |
| CEPT1 (UniProt Q9Y6K0) | inactive: 0.025 | inactive: -0.005 | active: -0.216 | inactive: 0.035 | inactive: 0.032 | inactive: -0.023 | inactive: -0.015 | inactive: 0 | inactive: 0.081 | inactive: 0.072 |
| CDC37L1 (UniProt Q7L3B6) | inactive: 0.008 | inactive: 0.034 | inactive: -0.006 | inactive: 0.032 | inactive: 0.027 | inactive: -0.014 | inactive: -0.042 | inactive: -0.013 | inactive: -0.008 | inactive: -0.008 |
| CDC42 isoform 1 (UniProt P60953) | inactive: 0 | inactive: 0.024 | inactive: 0.005 | inactive: -0.017 | inactive: 0 | inactive: 0.05 | inactive: -0.036 | inactive: 0 | inactive: 0.056 | inactive: 0.025 |
| CDK6 (UniProt Q00534) | inactive: -0.009 | inactive: 0.003 | inactive: 0.012 | inactive: 0.006 | inactive: 0.01 | inactive: 0.033 | inactive: 0.071 | inactive: -0.005 | inactive: -0.03 | inactive: -0.016 |
| CDS2 (UniProt O95674) | inactive: -0.023 | inactive: 0.004 | inactive: -0.087 | inactive: -0.008 | inactive: -0.011 | inactive: 0.079 | inactive: -0.027 | inactive: -0.056 | inactive: 0.01 | active: 0.214 |
| CDC25B (UniProt P30305) | inactive: 0.016 | inactive: 0.043 | inactive: 0.024 | inactive: 0.015 | inactive: -0.03 | inactive: 0.029 | inactive: -0.018 | inactive: -0.016 | inactive: -0.015 | inactive: 0.033 |
| CEMIP2 (UniProt Q9UHN6) | inactive: -0.027 | inactive: -0.01 | inactive: -0.051 | inactive: -0.039 | inactive: 0.064 | inactive: 0.002 | inactive: 0.059 | inactive: -0.056 | inactive: -0.002 | inactive: 0.019 |
| CDK17 isoform 2 (UniProt Q00537) | inactive: -0.156 | inactive: -0.007 | inactive: 0.173 | inactive: 0.099 | inactive: -0.114 | inactive: 0.005 | inactive: 0.046 | inactive: 0.124 | inactive: 0.068 | inactive: 0.055 |
| CFAP298 (UniProt P57076) | inactive: 0.016 | inactive: 0.072 | inactive: -0.024 | inactive: 0.044 | inactive: 0.017 | inactive: 0.002 | inactive: -0.026 | inactive: -0.016 | inactive: -0.003 | inactive: -0.031 |

Taken from above:
CES2 isoform 4 (UniProt O00748) – log2 fold change [5]: inactive: 0.087
CFAP298 (UniProt P57076) – log2 fold change [6]: inactive: -0.026
